Experimental findings from article doi:10.1101/2022.09.10.507283 are described below.

By UniProt entry, the sequences of proteins in these tests, tags left out. Where a name states a change or a piece, a line headed by the entry shows the natural chain unless it says otherwise.
UniProt P61586, whole entry, looked up, stated change not applied: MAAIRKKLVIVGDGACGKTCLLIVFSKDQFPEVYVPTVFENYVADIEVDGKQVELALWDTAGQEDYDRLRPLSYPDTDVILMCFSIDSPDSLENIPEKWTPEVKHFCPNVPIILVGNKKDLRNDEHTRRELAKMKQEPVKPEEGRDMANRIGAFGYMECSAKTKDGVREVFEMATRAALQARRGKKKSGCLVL
UniProt Q07157, whole entry: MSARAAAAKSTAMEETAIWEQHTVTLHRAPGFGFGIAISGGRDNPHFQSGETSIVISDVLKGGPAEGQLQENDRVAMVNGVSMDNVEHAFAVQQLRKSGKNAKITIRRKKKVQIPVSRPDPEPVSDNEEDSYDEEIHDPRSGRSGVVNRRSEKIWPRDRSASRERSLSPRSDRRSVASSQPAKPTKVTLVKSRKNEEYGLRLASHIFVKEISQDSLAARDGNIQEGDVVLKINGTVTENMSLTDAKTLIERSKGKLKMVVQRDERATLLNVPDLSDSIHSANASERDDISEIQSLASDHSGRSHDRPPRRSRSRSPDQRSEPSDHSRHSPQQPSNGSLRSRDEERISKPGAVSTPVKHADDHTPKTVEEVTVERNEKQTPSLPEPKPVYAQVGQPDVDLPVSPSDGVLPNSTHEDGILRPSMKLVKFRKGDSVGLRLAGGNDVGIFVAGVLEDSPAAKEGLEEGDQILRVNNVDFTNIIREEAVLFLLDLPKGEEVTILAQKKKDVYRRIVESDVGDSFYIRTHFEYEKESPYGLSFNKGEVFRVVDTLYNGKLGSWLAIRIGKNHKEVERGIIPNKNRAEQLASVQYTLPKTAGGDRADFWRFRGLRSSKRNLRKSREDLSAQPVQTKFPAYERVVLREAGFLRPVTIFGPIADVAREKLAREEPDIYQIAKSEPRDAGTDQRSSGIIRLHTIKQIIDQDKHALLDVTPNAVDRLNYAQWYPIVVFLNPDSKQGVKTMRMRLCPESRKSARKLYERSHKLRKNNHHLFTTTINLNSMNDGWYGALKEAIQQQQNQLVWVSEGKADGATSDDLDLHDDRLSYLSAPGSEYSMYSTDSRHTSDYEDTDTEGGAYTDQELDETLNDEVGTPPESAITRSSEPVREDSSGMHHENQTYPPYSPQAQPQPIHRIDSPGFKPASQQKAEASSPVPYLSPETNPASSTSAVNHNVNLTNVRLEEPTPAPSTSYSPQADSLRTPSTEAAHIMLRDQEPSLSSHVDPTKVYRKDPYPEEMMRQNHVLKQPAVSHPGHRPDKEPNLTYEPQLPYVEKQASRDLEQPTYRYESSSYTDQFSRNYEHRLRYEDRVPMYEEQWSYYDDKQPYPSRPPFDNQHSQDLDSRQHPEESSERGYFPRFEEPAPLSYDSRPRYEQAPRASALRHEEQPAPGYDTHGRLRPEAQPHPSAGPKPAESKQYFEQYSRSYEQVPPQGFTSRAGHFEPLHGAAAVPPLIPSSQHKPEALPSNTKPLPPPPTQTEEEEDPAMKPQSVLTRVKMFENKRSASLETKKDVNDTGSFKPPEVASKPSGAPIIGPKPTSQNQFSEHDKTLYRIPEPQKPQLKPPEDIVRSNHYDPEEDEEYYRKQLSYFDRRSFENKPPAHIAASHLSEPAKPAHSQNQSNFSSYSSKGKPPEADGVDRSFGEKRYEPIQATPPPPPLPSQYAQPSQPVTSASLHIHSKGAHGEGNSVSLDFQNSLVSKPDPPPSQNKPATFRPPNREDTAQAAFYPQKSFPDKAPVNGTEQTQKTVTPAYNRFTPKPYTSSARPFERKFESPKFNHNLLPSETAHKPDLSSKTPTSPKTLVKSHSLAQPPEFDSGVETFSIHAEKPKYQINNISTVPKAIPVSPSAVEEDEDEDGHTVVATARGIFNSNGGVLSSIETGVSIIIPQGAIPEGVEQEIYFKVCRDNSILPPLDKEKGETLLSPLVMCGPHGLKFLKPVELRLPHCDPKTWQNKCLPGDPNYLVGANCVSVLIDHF

Residue numbers refer to the chain shown, from its start. Names may count otherwise. Where two headings read alike, the source gives them in different places. Results are given in words; binding and its absence hold for the method and conditions named. In cells and extracts the contact can be indirect. Some results given as binding are weak or reduced against the parent protein; the word gives no strength. For some assays here: Tags and fused reporters may be left off the sequences shown.

Test [1] addresses T1, flag-tagged ARHGEF18 (Arhgef18-HA/FLAG, wild type) (human) (UniProt Q6ZSZ5).
T1 sequence: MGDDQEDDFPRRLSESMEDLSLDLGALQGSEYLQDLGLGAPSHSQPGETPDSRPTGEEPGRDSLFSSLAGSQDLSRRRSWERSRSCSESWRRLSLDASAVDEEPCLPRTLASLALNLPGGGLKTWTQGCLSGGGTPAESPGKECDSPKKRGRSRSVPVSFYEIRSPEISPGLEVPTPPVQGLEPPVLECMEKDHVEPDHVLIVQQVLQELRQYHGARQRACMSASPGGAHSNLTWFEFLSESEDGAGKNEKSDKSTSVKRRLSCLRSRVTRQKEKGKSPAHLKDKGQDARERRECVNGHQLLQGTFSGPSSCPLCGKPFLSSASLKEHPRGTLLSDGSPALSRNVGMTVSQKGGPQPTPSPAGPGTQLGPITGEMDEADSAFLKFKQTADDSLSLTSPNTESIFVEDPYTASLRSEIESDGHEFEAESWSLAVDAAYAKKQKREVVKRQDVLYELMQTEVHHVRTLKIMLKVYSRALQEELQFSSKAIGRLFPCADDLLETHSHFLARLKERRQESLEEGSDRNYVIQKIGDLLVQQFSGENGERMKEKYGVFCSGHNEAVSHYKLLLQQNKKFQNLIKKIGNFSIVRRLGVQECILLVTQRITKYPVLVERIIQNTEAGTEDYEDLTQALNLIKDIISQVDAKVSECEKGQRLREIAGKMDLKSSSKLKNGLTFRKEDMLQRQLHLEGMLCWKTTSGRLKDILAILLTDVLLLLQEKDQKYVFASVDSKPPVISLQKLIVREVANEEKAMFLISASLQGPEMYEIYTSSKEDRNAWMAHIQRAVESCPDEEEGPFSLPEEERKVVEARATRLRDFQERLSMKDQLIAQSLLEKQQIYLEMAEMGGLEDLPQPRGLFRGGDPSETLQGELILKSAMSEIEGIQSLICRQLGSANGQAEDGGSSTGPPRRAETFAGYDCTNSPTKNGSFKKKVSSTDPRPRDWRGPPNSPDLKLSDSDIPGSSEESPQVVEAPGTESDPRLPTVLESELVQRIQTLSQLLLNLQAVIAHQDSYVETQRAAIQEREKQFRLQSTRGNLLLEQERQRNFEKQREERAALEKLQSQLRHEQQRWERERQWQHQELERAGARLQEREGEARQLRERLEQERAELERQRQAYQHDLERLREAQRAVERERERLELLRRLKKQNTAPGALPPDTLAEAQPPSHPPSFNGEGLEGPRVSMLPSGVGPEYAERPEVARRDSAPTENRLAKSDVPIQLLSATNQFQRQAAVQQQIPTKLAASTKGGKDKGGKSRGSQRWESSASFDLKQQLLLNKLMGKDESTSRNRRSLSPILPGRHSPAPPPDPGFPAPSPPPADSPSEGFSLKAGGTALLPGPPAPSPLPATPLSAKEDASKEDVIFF
Briefly: co-IP.

For test [2], the target named is T2, VE-cadherin (endogenous, HUVEC) (human (endogenous in HUVEC)), P33151.
T2 chain: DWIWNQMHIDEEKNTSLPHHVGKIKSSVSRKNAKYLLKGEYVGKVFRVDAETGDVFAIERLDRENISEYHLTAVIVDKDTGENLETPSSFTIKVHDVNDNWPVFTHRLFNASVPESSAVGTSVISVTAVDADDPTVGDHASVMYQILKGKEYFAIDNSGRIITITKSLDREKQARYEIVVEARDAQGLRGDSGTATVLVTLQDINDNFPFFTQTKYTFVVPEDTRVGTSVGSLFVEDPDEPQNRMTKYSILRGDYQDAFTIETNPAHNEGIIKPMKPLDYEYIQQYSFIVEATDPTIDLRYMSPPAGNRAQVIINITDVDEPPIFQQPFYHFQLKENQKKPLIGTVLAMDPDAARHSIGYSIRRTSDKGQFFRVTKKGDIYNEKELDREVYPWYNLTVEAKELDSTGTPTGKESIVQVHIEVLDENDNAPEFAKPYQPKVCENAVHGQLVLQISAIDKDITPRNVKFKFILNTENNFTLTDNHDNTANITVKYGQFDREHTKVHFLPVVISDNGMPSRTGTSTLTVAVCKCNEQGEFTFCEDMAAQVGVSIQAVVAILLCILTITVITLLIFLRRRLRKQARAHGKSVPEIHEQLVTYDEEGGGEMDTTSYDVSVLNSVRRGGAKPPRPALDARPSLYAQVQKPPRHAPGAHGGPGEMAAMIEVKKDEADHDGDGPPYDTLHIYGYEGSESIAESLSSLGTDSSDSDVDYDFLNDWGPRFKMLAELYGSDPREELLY
Briefly: co-IP. Particulars: remark: other sources report otherwise.

In test [3] the target is T1, flag-tagged ARHGEF18 (Arhgef18-HA/FLAG, wild type) (human). The test can be described thus: co-IP. The source holds these as a separate data set.
For test [4], the target named is GST-RhoA^G17A (nucleotide-free RhoA mutant) (UniProt P61586). The test can be described thus: pull-down.

With “ZO-1 (endogenous, HUVEC) (from UniProt Q07157 1-1748)”, the binding entry in test [1] was “binds”.

B1: β-catenin (endogenous, HUVEC), P35222 1-781 (protein)
chain: MATQADLMELDMAMEPDRKAAVSHWQQQSYLDSGIHSGATTTAPSLSGKGNPEEEDVDTSQVLYEWEQGFSQSFTQEQVADIDGQYAMTRAQRVRAAMFPETLDEGMQIPSTQFDAAHPTNVQRLAEPSQMLKHAVVNLINYQDDAELATRAIPELTKLLNDEDQVVVNKAAVMVHQLSKKEASRHAIMRSPQMVSAIVRTMQNTNDVETARCTAGTLHNLSHHREGLLAIFKSGGIPALVKMLGSPVDSVLFYAITTLHNLLLHQEGAKMAVRLAGGLQKMVALLNKTNVKFLAITTDCLQILAYGNQESKLIILASGGPQALVNIMRTYTYEKLLWTTSRVLKVLSVCSSNKPAIVEAGGMQALGLHLTDPSQRLVQNCLWTLRNLSDAATKQEGMEGLLGTLVQLLGSDDINVVTCAAGILSNLTCNNYKNKMMVCQVGGIEALVRTVLRAGDREDITEPAICALRHLTSRHQEAEMAQNAVRLHYGLPVVVKLLHPPSHWPLIKATVGLIRNLALCPANHAPLREQGAIPRLVQLLVRAHQDTQRRTSMGGTQQQFVEGVRMEEIVEGCTGALHILARDVHNRIVIRGLNTIPLFVQLLYSPIENIQRVAAGVLCELAQDKEAAEAIEAEGATAPLTELLHSRNEGVATYAAAVLFRMSEDKPQDYKKRLSVELTSSLFRTEPMAWNETADLGLDIGAQGEPLGYRQDDPSYRSFHSGGYGQDALGMDPMMEHEMGGHHPGADYPVDGLPDLGHAQDLMDGLPPGDSNQLAWFDTDL
Take B1: in test [2], the binding entry is on record as “binds”.

B2: VE-cadherin (endogenous, HUVEC) (protein, UniProt P33151 48-784)
chain: T2 chain
In the case of B2, the binding result in test [3] is “no binding”.

B3: WT-ARHGEF18 (exogenous wild type used in the RHOA^G17A pull-down) (protein, UniProt Q6ZSZ5-4 1-1361)
chain: T1 sequence
For the molecule B3, the binding result in test [4] is reported as “binds”.

B4: ARHGEF18^Y606A (Arhgef18-HA/FLAG_shArhgef18.6, GEF mutant) (protein, UniProt Q6ZSZ5-4 1-1361)
chain: T1 sequence with Y606A
With B4, the binding result in test [4] was “no binding”.
